For the assay, the target named is thyroid hormone receptor (TR). As to the kind of experiment: in vitro pull-down and co-immunoprecipitation.

Results are given in words; binding and its absence hold for the method and conditions named. In cells and extracts the contact can be indirect. Where a sequence is shown, tags or fusion partners need not be part of it.

B1: recombinant Flag-JHDM2A (JmjC domain-containing histone demethylase 2A) (enzyme, not shown: small tags and cut ends)
chain: MVLTLGESWPVLVGRRFLSLSAADGSDGSHDSWDVERVAEWPWLSGTIRAVSHTDVTKKDLKVCVEFDGESWRKRRWIEVYSLLRRAFLVEHNLVLAERKSPEISERIVQWPAITYKPLLDKAGLGSITSVRFLGDQQRVFLSKDLLKPIQDVNSLRLSLTDNQIVSKEFQALIVKHLDESHLLKGDKNLVGSEVKIYSLDPSTQWFSATVINGNPASKTLQVNCEEIPALKIVDPSLIHVEVVHDNLVTCGNSARIGAVKRKSSENNGTLVSKQAKSCSEASPSMCPVQSVPTTVFKEILLGCTAATPPSKDPRQQSTPQAANSPPNLGAKIPQGCHKQSLPEEISSCLNTKSEALRTKPDVCKAGLLSKSSQIGTGDLKILTEPKGSCTQPKTNTDQENRLESVPQALTGLPKECLPTKASSKAELEIANPPELQKHLEHAPSPSDVSNAPEVKAGVNSDSPNNCSGKKVEPSALACRSQNLKESSVKVDNESCCSRSNNKIQNAPSRKSVLTDPAKLKKLQQSGEAFVQDDSCVNIVAQLPKCRECRLDSLRKDKEQQKDSPVFCRFFHFRRLQFNKHGVLRVEGFLTPNKYDNEAIGLWLPLTKNVVGIDLDTAKYILANIGDHFCQMVISEKEAMSTIEPHRQVAWKRAVKGVREMCDVCDTTIFNLHWVCPRCGFGVCVDCYRMKRKNCQQGAAYKTFSWLKCVKSQIHEPENLMPTQIIPGKALYDVGDIVHSVRAKWGIKANCPCSNRQFKLFSKPASKEDLKQTSLAGEKPTLGAVLQQNPSVLEPAAVGGEAASKPAGSMKPACPASTSPLNWLADLTSGNVNKENKEKQPTMPILKNEIKCLPPLPPLSKSSTVLHTFNSTILTPVSNNNSGFLRNLLNSSTGKTENGLKNTPKILDDIFASLVQNKTTSDLSKRPQGLTIKPSILGFDTPHYWLCDNRLLCLQDPNNKSNWNVFRECWKQGQPVMVSGVHHKLNSELWKPESFRKEFGEQEVDLVNCRTNEIITGATVGDFWDGFEDVPNRLKNEKEPMVLKLKDWPPGEDFRDMMPSRFDDLMANIPLPEYTRRDGKLNLASRLPNYFVRPDLGPKMYNAYGLITPEDRKYGTTNLHLDVSDAANVMVYVGIPKGQCEQEEEVLKTIQDGDSDELTIKRFIEGKEKPGALWHIYAAKDTEKIREFLKKVSEEQGQENPADHDPIHDQSWYLDRSLRKRLHQEYGVQGWAIVQFLGDVVFIPAGAPHQVHNLYSCIKVAEDFVSPEHVKHCFWLTQEFRYLSQTHTNHEDKLQVKNVIYHAVKDAVAMLKASESSFGKP
Regarding B1, the binding entry is given as “no binding”.
